# Counter-ions that a name gives are not always drawn. This is one part of the list. Hit calls seldom repeat between salt and free forms of one compound.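 Kinases, fused to nanoluciferase, were expressed in K562 cells; luminescence was measured every 4 h from 2 to 18 h as percent of control (DMSO = 100%, positive control = 0%). A time point is decreased if signal falls significantly (2 sigma). Hits were called by the authors by a rule that is not shown; the count of time points alone does not decide it.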
# The chains behind the UniProt entries cited, without tags or fusion partners. Where a name states a change or a piece, a line headed by the entry shows the natural chain unless it says otherwise.
# UniProt P00519, whole entry: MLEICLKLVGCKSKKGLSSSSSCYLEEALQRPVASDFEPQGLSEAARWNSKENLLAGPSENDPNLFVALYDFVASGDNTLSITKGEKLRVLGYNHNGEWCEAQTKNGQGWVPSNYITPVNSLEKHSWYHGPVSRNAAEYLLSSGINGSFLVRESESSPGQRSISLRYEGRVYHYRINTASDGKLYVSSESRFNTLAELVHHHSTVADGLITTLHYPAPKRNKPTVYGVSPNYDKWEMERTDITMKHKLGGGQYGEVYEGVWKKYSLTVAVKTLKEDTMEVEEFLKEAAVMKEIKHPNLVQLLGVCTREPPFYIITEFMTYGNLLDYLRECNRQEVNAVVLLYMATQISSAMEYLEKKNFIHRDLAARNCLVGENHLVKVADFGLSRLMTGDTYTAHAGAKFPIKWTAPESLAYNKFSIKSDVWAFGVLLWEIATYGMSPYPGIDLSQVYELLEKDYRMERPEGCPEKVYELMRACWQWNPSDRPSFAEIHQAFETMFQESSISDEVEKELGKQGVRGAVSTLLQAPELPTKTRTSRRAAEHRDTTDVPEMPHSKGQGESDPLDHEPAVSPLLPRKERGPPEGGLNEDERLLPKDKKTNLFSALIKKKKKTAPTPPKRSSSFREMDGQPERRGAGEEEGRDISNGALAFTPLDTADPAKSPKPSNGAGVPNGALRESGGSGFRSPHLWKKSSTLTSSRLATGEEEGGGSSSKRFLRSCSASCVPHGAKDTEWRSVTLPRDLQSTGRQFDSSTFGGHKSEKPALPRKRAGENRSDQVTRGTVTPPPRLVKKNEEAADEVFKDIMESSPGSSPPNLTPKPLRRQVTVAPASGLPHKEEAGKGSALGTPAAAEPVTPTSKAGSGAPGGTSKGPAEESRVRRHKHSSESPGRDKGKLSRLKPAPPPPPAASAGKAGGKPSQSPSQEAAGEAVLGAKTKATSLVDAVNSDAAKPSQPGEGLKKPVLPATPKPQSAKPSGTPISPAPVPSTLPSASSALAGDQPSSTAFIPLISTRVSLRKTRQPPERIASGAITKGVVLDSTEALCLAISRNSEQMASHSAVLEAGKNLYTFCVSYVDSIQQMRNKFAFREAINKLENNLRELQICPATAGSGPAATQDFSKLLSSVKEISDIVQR
# UniProt P31749: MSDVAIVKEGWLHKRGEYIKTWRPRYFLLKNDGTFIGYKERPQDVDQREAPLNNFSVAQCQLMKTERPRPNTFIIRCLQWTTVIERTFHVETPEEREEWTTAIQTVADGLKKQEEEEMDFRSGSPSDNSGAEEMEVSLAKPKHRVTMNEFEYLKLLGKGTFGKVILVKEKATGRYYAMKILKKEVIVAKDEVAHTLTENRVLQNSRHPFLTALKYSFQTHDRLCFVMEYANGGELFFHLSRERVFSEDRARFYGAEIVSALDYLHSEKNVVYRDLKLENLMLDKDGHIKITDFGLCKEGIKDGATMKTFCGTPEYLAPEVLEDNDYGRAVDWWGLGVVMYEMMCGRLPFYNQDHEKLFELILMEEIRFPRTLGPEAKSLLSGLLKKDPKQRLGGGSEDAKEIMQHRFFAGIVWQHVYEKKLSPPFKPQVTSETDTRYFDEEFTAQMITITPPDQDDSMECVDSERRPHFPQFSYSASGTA
# UniProt P10398: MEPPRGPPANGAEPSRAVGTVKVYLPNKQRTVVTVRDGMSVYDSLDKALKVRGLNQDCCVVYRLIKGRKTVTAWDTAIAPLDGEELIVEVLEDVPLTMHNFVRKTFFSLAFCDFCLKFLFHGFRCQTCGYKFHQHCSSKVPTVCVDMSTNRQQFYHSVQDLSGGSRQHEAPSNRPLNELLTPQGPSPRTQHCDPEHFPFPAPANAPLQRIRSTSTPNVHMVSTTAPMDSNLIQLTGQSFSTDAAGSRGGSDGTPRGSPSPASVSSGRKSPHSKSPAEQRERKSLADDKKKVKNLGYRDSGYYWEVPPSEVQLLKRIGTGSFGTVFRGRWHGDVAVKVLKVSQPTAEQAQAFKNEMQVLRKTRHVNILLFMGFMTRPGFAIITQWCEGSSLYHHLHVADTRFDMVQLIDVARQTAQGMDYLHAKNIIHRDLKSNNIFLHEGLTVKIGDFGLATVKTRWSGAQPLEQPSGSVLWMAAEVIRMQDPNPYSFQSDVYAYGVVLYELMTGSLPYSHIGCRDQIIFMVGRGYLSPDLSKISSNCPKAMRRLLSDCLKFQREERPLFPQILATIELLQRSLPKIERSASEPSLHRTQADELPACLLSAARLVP
# UniProt O14965: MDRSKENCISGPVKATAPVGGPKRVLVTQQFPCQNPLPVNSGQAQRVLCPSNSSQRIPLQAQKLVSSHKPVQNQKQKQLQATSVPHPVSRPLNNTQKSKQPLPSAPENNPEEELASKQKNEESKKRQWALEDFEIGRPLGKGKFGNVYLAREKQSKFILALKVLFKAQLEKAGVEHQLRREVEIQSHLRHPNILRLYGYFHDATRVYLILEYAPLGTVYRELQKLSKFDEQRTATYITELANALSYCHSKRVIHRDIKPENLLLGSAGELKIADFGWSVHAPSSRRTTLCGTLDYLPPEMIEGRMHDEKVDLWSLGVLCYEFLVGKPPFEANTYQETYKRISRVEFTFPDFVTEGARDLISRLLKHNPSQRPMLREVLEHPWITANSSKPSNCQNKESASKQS
# UniProt Q96GD4, whole entry: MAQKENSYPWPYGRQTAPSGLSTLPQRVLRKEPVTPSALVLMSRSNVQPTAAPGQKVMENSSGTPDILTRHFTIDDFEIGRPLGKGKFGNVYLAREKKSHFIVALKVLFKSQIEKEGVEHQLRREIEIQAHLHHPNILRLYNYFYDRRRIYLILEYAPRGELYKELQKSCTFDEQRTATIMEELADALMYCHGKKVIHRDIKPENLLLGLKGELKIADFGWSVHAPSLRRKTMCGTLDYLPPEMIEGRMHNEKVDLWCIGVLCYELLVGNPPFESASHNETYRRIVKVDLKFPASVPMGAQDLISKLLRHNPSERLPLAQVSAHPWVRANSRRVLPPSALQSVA
# UniProt Q9UQB9: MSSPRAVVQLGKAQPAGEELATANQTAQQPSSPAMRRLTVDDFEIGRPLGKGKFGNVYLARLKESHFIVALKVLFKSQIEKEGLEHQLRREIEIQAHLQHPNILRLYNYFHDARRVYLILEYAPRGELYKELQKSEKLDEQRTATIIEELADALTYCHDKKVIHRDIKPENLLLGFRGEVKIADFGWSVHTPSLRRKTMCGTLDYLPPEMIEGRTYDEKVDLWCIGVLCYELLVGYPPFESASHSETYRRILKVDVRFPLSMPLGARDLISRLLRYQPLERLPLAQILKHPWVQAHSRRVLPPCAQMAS
# UniProt P51451: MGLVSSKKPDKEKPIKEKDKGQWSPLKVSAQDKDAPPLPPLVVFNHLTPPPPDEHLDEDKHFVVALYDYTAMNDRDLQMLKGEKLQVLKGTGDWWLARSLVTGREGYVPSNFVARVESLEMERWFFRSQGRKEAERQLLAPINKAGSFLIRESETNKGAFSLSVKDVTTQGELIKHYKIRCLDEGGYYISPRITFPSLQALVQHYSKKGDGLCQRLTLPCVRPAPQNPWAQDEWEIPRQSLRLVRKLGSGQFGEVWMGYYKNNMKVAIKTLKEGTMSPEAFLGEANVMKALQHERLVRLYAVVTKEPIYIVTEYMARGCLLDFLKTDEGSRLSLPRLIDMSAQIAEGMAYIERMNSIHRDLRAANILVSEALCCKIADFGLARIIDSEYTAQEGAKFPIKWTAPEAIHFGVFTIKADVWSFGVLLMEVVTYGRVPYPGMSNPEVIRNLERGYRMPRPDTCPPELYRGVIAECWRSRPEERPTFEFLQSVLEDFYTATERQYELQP
# UniProt P51813: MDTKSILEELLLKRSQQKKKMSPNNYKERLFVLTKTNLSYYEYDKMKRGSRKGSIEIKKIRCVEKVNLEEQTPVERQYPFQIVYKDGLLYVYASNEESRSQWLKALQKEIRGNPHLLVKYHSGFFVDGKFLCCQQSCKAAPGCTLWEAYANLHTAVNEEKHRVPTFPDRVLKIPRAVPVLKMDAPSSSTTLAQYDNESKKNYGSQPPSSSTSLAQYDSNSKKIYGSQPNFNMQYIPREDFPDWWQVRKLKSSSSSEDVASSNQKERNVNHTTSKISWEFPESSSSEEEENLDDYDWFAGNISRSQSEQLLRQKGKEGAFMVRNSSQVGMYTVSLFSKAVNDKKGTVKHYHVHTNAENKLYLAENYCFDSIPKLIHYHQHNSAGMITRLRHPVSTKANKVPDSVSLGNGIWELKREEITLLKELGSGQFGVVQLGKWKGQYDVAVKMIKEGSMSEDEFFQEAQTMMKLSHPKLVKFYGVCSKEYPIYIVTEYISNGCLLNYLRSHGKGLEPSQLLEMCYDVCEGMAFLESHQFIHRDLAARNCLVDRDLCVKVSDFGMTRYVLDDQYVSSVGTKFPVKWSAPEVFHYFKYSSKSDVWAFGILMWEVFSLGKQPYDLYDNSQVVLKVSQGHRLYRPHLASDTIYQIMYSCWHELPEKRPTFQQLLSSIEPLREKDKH
# UniProt P15056, whole entry, looked up: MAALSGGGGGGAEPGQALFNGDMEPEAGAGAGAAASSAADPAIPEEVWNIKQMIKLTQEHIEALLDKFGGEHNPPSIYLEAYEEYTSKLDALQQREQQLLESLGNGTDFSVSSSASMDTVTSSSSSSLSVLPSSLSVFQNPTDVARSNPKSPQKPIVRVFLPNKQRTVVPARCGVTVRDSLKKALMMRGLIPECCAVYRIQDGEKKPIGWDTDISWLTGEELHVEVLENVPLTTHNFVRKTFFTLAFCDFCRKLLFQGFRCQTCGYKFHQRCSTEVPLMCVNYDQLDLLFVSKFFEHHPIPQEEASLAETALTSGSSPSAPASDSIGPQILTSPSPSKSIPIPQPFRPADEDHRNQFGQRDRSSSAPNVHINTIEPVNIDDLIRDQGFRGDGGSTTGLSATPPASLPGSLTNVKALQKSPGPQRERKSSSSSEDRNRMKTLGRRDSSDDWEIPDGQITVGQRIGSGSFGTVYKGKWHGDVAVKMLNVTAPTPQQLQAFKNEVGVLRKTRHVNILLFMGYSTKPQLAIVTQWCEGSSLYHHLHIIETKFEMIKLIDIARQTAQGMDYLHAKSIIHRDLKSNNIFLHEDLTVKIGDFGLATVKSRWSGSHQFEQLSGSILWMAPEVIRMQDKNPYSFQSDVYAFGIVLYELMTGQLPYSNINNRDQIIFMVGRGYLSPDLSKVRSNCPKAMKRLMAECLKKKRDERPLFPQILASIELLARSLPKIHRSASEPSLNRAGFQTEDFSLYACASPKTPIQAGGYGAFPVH
# Columns and labels:
# Assay in all cases: kinase-Nluc reporter destabilization hit call (1 = scored as downregulated) (binary); higher = compound decreases kinase abundance
# Settings in all cases: K562; 2-18 h
# ABL1 = ABL1 (UniProt P00519)
# AKT1 = AKT1 (UniProt P31749)
# ALK = ALK (UniProt Q9UM73)
# ARAF = ARAF (UniProt P10398)
# AURKA = AURKA (UniProt O14965)
# AURKB = AURKB (UniProt Q96GD4)
# AURKC = AURKC (UniProt Q9UQB9)
# BLK = BLK (UniProt P51451)
# BMX = BMX (UniProt P51813)
# BRAF = BRAF (UniProt P15056)
Compound,kinase-Nluc reporter destabilization hit call (ABL1),kinase-Nluc reporter destabilization hit call (AKT1),kinase-Nluc reporter destabilization hit call (ALK),kinase-Nluc reporter destabilization hit call (ARAF),kinase-Nluc reporter destabilization hit call (AURKA),kinase-Nluc reporter destabilization hit call (AURKB),kinase-Nluc reporter destabilization hit call (AURKC),kinase-Nluc reporter destabilization hit call (BLK),kinase-Nluc reporter destabilization hit call (BMX),kinase-Nluc reporter destabilization hit call (BRAF)
N#C/C(=C\c1ccc[nH]1)c1ccc(Cl)c(Cl)c1 (2.5 µM),inactive: 0,inactive: 0,inactive: 0,inactive: 0,inactive: 0,inactive: 0,inactive: 0,inactive: 0,inactive: 0,inactive: 0
OCCC#Cc1nc(-c2ccc(F)cc2)c(-c2ccncc2)n1CCCc1ccccc1 (2.5 µM),inactive: 0,inactive: 0,inactive: 0,inactive: 0,inactive: 0,inactive: 0,inactive: 0,inactive: 0,inactive: 0,inactive: 0
COc1cc(/C=C/c2ccc(NC(=O)/C=C/c3cc(OC)c(OC)c(OC)c3)cc2)cc(OC)c1 (2.5 µM),inactive: 0,inactive: 0,inactive: 0,inactive: 0,inactive: 0,inactive: 0,inactive: 0,inactive: 0,inactive: 0,inactive: 0
Cc1cccc(-c2[nH]c(C(C)(C)C)nc2-c2ccc3c(c2)OCO3)n1 (2.5 µM),inactive: 0,inactive: 0,inactive: 0,inactive: 0,inactive: 0,inactive: 0,inactive: 0,inactive: 0,inactive: 0,inactive: 0
Cc1cc(=O)[nH]c(=S)[nH]1 [Methylthiouracil] (10 µM),inactive: 0,inactive: 0,inactive: 0,inactive: 0,inactive: 0,inactive: 0,inactive: 0,inactive: 0,inactive: 0,inactive: 0
Cc1nc(Nc2ncc(C(=O)Nc3c(C)cccc3Cl)s2)cc(N2CCN(C(=O)CCCCCCC(=O)N[C@H](C(=O)N3C[C@H](O)C[C@H]3C(=O)NCc3ccc(-c4scnc4C)cc3)C(C)(C)C)CC2)n1 (2.5 µM),inactive: 0,inactive: 0,inactive: 0,inactive: 0,inactive: 0,inactive: 0,inactive: 0,inactive: 0,active: 1,inactive: 0
CNS(=O)(=O)C[C@H]1CC[C@H](N(C)c2[nH]cnc3nccc2-3)CC1 [Oclacitinib (maleate)] (10 µM),inactive: 0,inactive: 0,inactive: 0,inactive: 0,inactive: 0,inactive: 0,inactive: 0,inactive: 0,inactive: 0,inactive: 0
O=C(O)[C@]1(Cc2cccc(Nc3nccs3)n2)CC[C@@H](Oc2cccc(Cl)c2F)CC1 (2.5 µM),inactive: 0,inactive: 0,inactive: 0,inactive: 0,inactive: 0,inactive: 0,inactive: 0,inactive: 0,inactive: 0,inactive: 0
COC(=O)[C@]1(C)CC[C@]2(C(=O)O[C@@H]3O[C@H](CO)[C@@H](O)[C@H](O)[C@H]3O)CC[C@]3(C)C(=CC[C@@H]4[C@@]5(C)C[C@H](O)[C@H](O[C@@H]6OC[C@@H](O[C@@H]7O[C@H](CO)[C@@H](O)[C@H](O)[C@H]7O)[C@H](O)[C@H]6O)[C@@](C)(CO)C5CC[C@]43C)[C@H]2C1 (stereo not given in full) [Esculentoside H] (10 µM),inactive: 0,inactive: 0,inactive: 0,inactive: 0,inactive: 0,inactive: 0,inactive: 0,inactive: 0,inactive: 0,inactive: 0
Cc1ccc(Nc2c(C(N)=O)cnc3cc(-c4ccncc4)ccc23)cc1C [cFMS Receptor Inhibitor II] (10 µM),inactive: 0,inactive: 0,inactive: 0,inactive: 0,inactive: 0,inactive: 0,inactive: 0,inactive: 0,inactive: 0,inactive: 0
CNCCOc1ccccc1C(C)(C)Nc1nccn(-c2cc(C(=O)NC3CC3)ccc2C)c1=O [p38α inhibitor 2] (10 µM),inactive: 0,inactive: 0,inactive: 0,inactive: 0,inactive: 0,inactive: 0,inactive: 0,inactive: 0,inactive: 0,inactive: 0
COc1ccc(C2CC(c3ccc(Cl)cc3)=NN2c2nc(-c3ccncc3)cs2)cc1 (stereo not given) [mTOR inhibitor-8] (10 µM),inactive: 0,inactive: 0,inactive: 0,inactive: 0,inactive: 0,inactive: 0,inactive: 0,inactive: 0,inactive: 0,inactive: 0
CC[C@H](C)[C@@H]1NC(=O)[C@@H]2CCCN2C(=O)[C@@H]2CCCN2C(=O)[C@@H]2CCCN2C(=O)[C@H](CC(C)C)NC(=O)CNC(=O)CNC(=O)[C@H](Cc2ccccc2)NC1=O [Heterophyllin B] (10 µM),inactive: 0,inactive: 0,inactive: 0,inactive: 0,inactive: 0,inactive: 0,inactive: 0,inactive: 0,inactive: 0,inactive: 0
C[C@@H](N)COc1ccc(-c2cnc3ccc(N[C@H](C)c4cccc(F)c4)nn23)cc1 [Taletrectinib] (2.5 µM),inactive: 0,inactive: 0,inactive: 0,inactive: 0,inactive: 0,inactive: 0,inactive: 0,inactive: 0,inactive: 0,inactive: 0
Cc1cc(F)c(Nc2ncnc3cc(OCc4ccccc4)ccc23)cc1O (10 µM),inactive: 0,inactive: 0,inactive: 0,inactive: 0,inactive: 0,inactive: 0,inactive: 0,inactive: 0,inactive: 0,inactive: 0
COc1c(OCCCN2CCOCC2)ccc2c3n(c(=NC(=O)c4cnc(N)nc4)nc12)CCN3 [Copanlisib (dihydrochloride)] (10 µM),active: 1,inactive: 0,inactive: 0,inactive: 0,active: 1,inactive: 0,inactive: 0,inactive: 0,inactive: 0,inactive: 0
C=C[C@H]1[C@H](O[C@@H]2O[C@H](CO)[C@@H](O)[C@H](O)[C@H]2O)OC=C(C(=O)OC)[C@H]1CCOC(=O)c1cc(O)c(O)c(O)c1 [Cornuside] (10 µM),inactive: 0,inactive: 0,inactive: 0,inactive: 0,inactive: 0,inactive: 0,inactive: 0,inactive: 0,inactive: 0,inactive: 0
COc1cccc2cc(-c3nc([C@H]4CC[C@H](C(=O)O)CC4)n4ncnc(N)c34)[nH]c12 (2.5 µM),inactive: 0,inactive: 0,inactive: 0,inactive: 0,inactive: 0,inactive: 0,inactive: 0,inactive: 0,inactive: 0,inactive: 0

# Looked up above:
# COc1ccc(C2CC(c3ccc(Cl)cc3)=NN2c2nc(-c3ccncc3)cs2)cc1 (stereo not given) [mTOR inhibitor-8] (10 µM) | kinase-Nluc reporter destabilization hit call (ABL1): inactive: 0
# CNCCOc1ccccc1C(C)(C)Nc1nccn(-c2cc(C(=O)NC3CC3)ccc2C)c1=O [p38α inhibitor 2] (10 µM) | kinase-Nluc reporter destabilization hit call (ARAF): inactive: 0

# Further compounds follow:

Compound,kinase-Nluc reporter destabilization hit call (ABL1),kinase-Nluc reporter destabilization hit call (AKT1),kinase-Nluc reporter destabilization hit call (ALK),kinase-Nluc reporter destabilization hit call (ARAF),kinase-Nluc reporter destabilization hit call (AURKA),kinase-Nluc reporter destabilization hit call (AURKB),kinase-Nluc reporter destabilization hit call (AURKC),kinase-Nluc reporter destabilization hit call (BLK),kinase-Nluc reporter destabilization hit call (BMX),kinase-Nluc reporter destabilization hit call (BRAF)
CC(C)(O)c1cc(Nc2cc(Oc3cn(C4CC4)nc3C3CCOCC3)ccn2)ccn1 (10 µM),inactive: 0,inactive: 0,inactive: 0,inactive: 0,inactive: 0,inactive: 0,inactive: 0,inactive: 0,inactive: 0,inactive: 0
C[C@H]1CNC(=O)c2cnn3ccc(nc23)N[C@H](C)c2cc(F)ccc2O1 [Repotrectinib] (2.5 µM),inactive: 0,inactive: 0,inactive: 0,inactive: 0,inactive: 0,inactive: 0,inactive: 0,inactive: 0,inactive: 0,inactive: 0
C[C@@H]1CC[C@]2(C(=O)O)CC[C@]3(C)C(=CC[C@@H]4[C@@]5(C)CC[C@H](O)[C@@](C)(CO)[C@@H]5CC[C@]43C)[C@@H]2[C@]1(C)O [Rotundic acid] (10 µM),inactive: 0,inactive: 0,inactive: 0,inactive: 0,inactive: 0,inactive: 0,inactive: 0,inactive: 0,inactive: 0,inactive: 0
CCn1c2ccccc2c2cc(Nc3ccnc(NCCCN4CCOCC4)n3)ccc21 (2.5 µM),inactive: 0,inactive: 0,inactive: 0,inactive: 0,inactive: 0,inactive: 0,inactive: 0,inactive: 0,inactive: 0,inactive: 0
N#Cc1c[nH]c2ccc(-c3ccc(-c4c(O)cccc4O)cc3)cc12 (10 µM),inactive: 0,inactive: 0,inactive: 0,inactive: 0,inactive: 0,inactive: 0,inactive: 0,inactive: 0,inactive: 0,inactive: 0
CC(C)Cn1cc(C#N)c2cc(Oc3ccc(NC(=O)[C@@H]4CCCN4)cc3)ccc21 (10 µM),inactive: 0,inactive: 0,inactive: 0,inactive: 0,inactive: 0,inactive: 0,inactive: 0,inactive: 0,inactive: 0,inactive: 0
CC(=O)NCC(=O)N[C@@H](C)C(=O)N[C@@H](CCC(N)=O)C(=O)N[C@@H](Cc1ccccc1)C(=O)N[C@@H](CO)C(=O)N[C@@H](CCCCN)C(=O)N[C@H](C(=O)N[C@@H](C)C(=O)N[C@@H](C)C(=O)N[C@@H](CCCCN)C(=O)O)[C@@H](C)O (10 µM),inactive: 0,inactive: 0,inactive: 0,inactive: 0,inactive: 0,inactive: 0,inactive: 0,inactive: 0,inactive: 0,inactive: 0
O=C(Nc1nccs1)C(c1cc(F)ccc1O)N1Cc2ccccc2C1=O (stereo not given) (10 µM),inactive: 0,inactive: 0,inactive: 0,inactive: 0,inactive: 0,inactive: 0,inactive: 0,active: 1,inactive: 0,inactive: 0
O=c1cc(-c2ccc(O)cc2)oc2cc(O)c([C@@H]3O[C@H](CO)[C@@H](O)[C@H](O)[C@H]3O)c(O)c12 [Isovitexin] (10 µM),inactive: 0,inactive: 0,inactive: 0,inactive: 0,inactive: 0,inactive: 0,inactive: 0,inactive: 0,inactive: 0,inactive: 0
CC(C)(C)NS(=O)(=O)c1cncc(-c2cc(F)c3nc(N)nn3c2)c1 (10 µM),inactive: 0,inactive: 0,inactive: 0,inactive: 0,inactive: 0,inactive: 0,inactive: 0,inactive: 0,inactive: 0,inactive: 0
CCOC(=O)C1=C[C@]2(CC)CCCN3CCc4c(n1c1ccccc41)[C@@H]32 [Vinpocetine] (10 µM),inactive: 0,inactive: 0,inactive: 0,inactive: 0,inactive: 0,inactive: 0,inactive: 0,inactive: 0,inactive: 0,inactive: 0
COc1cc(-c2cnc(N)c(-c3ccc(NC(=O)c4cn(CC5CCOCC5)cc(-c5ccc(C)cn5)c4=O)cc3F)c2)ccc1OC[C@H]1COCCO1 [DS-1205b (free base)] (10 µM),inactive: 0,inactive: 0,inactive: 0,inactive: 0,inactive: 0,inactive: 0,inactive: 0,inactive: 0,inactive: 0,inactive: 0
O=c1ccc2cc(O)c(O)cc2o1 [Esculetin] (10 µM),inactive: 0,inactive: 0,inactive: 0,inactive: 0,inactive: 0,inactive: 0,inactive: 0,inactive: 0,inactive: 0,inactive: 0
C=CC(=O)N1CCN(c2nc(OC[C@@H]3CCCN3C)nc3c2CCN(c2cccc4cccc(C)c24)C3)C[C@@H]1CC#N (2.5 µM),inactive: 0,inactive: 0,inactive: 0,inactive: 0,inactive: 0,inactive: 0,inactive: 0,inactive: 0,inactive: 0,inactive: 0
C[C@H](CC[C@@H](O)C(C)(C)O)[C@H]1CC[C@@]2(C)[C@@H]3CC=C4[C@@H](CC[C@H](O)C4(C)C)[C@]3(C)[C@H](O)C[C@]12C [Mogrol] (10 µM),inactive: 0,inactive: 0,inactive: 0,inactive: 0,inactive: 0,inactive: 0,inactive: 0,inactive: 0,inactive: 0,inactive: 0
CC1=C(C(=O)Nc2ccc3[nH]ncc3c2)C(c2ccc(F)c(C(=O)NCc3ccccn3)c2)NC(=O)N1 (stereo not given) (10 µM),inactive: 0,inactive: 0,inactive: 0,inactive: 0,inactive: 0,inactive: 0,inactive: 0,inactive: 0,inactive: 0,inactive: 0
COC(=O)/C=C/c1ccc(O)c(OC)c1 [Ferulic acid methyl ester] (10 µM),inactive: 0,inactive: 0,inactive: 0,inactive: 0,inactive: 0,inactive: 0,inactive: 0,inactive: 0,inactive: 0,inactive: 0
CNC(=O)c1nnc(NC(=O)C2CC2)cc1Nc1cccc(-c2ncn(C)n2)c1OC [Deucravacitinib] (10 µM),inactive: 0,inactive: 0,inactive: 0,inactive: 0,inactive: 0,inactive: 0,inactive: 0,inactive: 0,inactive: 0,inactive: 0
